Results as given in patent US6939538B2, “Extended release analgesic for pain control” (Biomedical Research Models, Inc., priority 2002, dated 2005).

Assays:
[1] = injected into rats; observation of rat mobility
[2] = background; mean/effective residence time; cited from earlier work

SMILES | Time duration of analgesic effects [1] [h] | Residence time in the body [2]
CN1CC[C@]23c4c5ccc(O)c4O[C@H]2[C@@H](O)C=C[C@H]3[C@H]1C5.O=S(=O)(O)O [Aqueous Morphine, control, morphine sulfate] | 2 | –
CN1CC[C@]23c4c5ccc(O)c4O[C@H]2[C@@H](O)C=C[C@H]3[C@H]1C5 [morphine] | – | only a few hours
